Experimental data as given in PubChem BioAssay AID2685 (National Center for Advancing Translational Sciences (NCATS), 2010).
This is one part of the list. Further columns of the screen follow, without active or inactive calls. Compounds called inactive in the main read-out are mostly missing here. The note in brackets gives the kind of curve behind each potency; many fits are weak.

Assay: qHTS Assay for Lipid Storage Modulators in Drosophila S3 Cells;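 on cell number change: cells counted by Cell Tracker Red CMTPX staining in the red channel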
Details: BODIPY lipid droplet fluorescence, 18-24 h; for cell number change: measured here: cell count max response, cells fed with added oleic acid
Procedure, shortened: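 Drosophila S3 cells got compounds at several concentrations plus oleic acid (400 uM solution). Laser-scanning cytometry with 488 nm excitation read lipid droplets at 500-530 nm and cells at 575-640 nm. Percent activity was relative to 20 uM Triacsin C.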

[1] = measured here: lipid fluorescence (Fed channel) AC50, cells fed with added oleic acid
[2] = measured here: cell number channel AC50, cells fed with added oleic acid

Structure (SMILES)	cell number change [%]	AC50 [1]	AC50 [2]
CC1CC1C(=O)OCC(=O)NNC(=O)c1ccc([N+](=O)[O-])cc1 (stereo unspecified)	-11	–	–
CC(C)C(NC=C1C(=O)OC(C)(C)OC1=O)C(=O)O (stereo unspecified)	-6.49	0.13 µM [falling, full curve, poor fit]	–
CCC1(C)Cc2c(sc3nc(SCC(=O)O)[nH]c(=O)c23)CO1 (stereo unspecified)	-110	–	29.1 µM [falling, single point]
CCC(C)(C)NC(=O)CN(Cc1ccc(F)cc1)C(=O)CCC(=O)Nc1ccccn1	13.5	0.231 µM [falling, full curve, poor fit]	–
O=C(Nc1cccnc1)C1CCC(CNS(=O)(=O)c2cccc3nsnc23)CC1 (stereo unspecified)	-7	–	–
N/C(=N\OC(=O)c1ccc2c(c1)OCO2)c1ccc(Br)cc1	6.78	0.13 µM [rising, full curve, poor fit]	–
CN(C)CCCNCC(=O)c1c(-c2ccccc2)n(C)c2ccccc12	-12.6	6.51 µM [falling, partial curve]	–
COc1ccc(N=C(C)c2sc3ccccc3c2O)cc1	-20	29.1 µM [falling, single point]	–
Cc1cc(C)c(C#N)c(SCC(=O)Nc2nnc(-c3ccccc3)s2)n1	5.69	3.66 µM [rising, full curve]	–
CN(C(=O)c1cc2n(n1)C(C(F)(F)F)CC(c1ccco1)N2)c1ccc(OC(F)(F)F)cc1 (stereo unspecified)	-45.2	1.84 µM [falling, partial curve]	25.9 µM [falling, single point]
CN(C)c1ccc(/C(=N\O)C(F)(F)F)cc1	-57.4	25.9 µM [falling, partial curve]	23.1 µM [falling, partial curve, poor fit]
COc1cc(C(=O)Nc2ccc3c(c2)nc(C)n3C)cc(OC)c1OC	18.4	29.1 µM [falling, single point]	–
COc1ccc(Br)cc1/C=N/NC(=O)C[n+]1ccccc1	17.7	–	–
CCC(C(=O)N1CCN(c2ccccc2OC)CC1)c1ccccc1 (stereo unspecified)	20.1	29.1 µM [rising, single point]	–
O=C(NCCCN1CCOCC1)c1cccc(S(=O)(=O)N2CCOCC2)c1	2.34	–	–
COc1ccc2[nH]c3c(N4CCc5ccccc5C4)ncnc3c2c1	-64.4	20.6 µM [falling, partial curve]	16.4 µM [falling, partial curve, poor fit]
CNS(=O)(=O)c1cccc(C(=O)NNC(=O)c2ccc(COc3ccccc3)cc2)c1	22.1	11.6 µM [rising, single point]	0.461 µM [rising, full curve, poor fit]
CCc1nn(CC(=O)N2CCC(C(N)=O)CC2)c(=O)c2cc3occc3n12	-12.1	6.51 µM [rising, single point]	–
CSCC[C@H](NC(=O)[C@@H]1Cc2ccccc2CN1)C(=O)NC1CCCCC1	–	–	0.517 µM [falling, full curve, poor fit]
COc1ccc(NC(=O)CN2CCC(C(N)=O)(N3CCCCC3)CC2)c(OC)c1	2.45	6.51 µM [falling, single point]	–

Structure (SMILES)	cell number change [%]	AC50 [1]	AC50 [2]
COc1ccc(C(=O)NCc2cccc(Cl)c2)cc1S(=O)(=O)N1CCOCC1	0.0627	0.13 µM [rising, full curve, poor fit]	–
C[n+]1cccc2c(Br)ccc([O-])c21	-24	–	–
COc1ccc(COC(=O)C2CCN(C(=O)c3ccc(Cl)cc3)CC2)cc1F	-58.6	0.731 µM [falling, full curve]	29.1 µM [falling, partial curve, poor fit]
CC(C)CNC(=O)CN(C1CCCCC1)S(C)(=O)=O	7.77	0.651 µM [falling, full curve]	6.51 µM [falling, single point]
CCOc1cc(/C=N/n2cnnc2)c(Br)cc1O	-31.3	0.82 µM [falling, single point]	32.6 µM [falling, single point]
CCCCCCCCNc1ncnc2ccccc12	-77.7	–	0.651 µM [falling, full curve]
Cc1ccc2c3c(cccc13)-c1ccccc1C2=O	11.4	6.51 µM [rising, partial curve]	–
COc1ccc(CN(C)C(=O)Cc2ccc(OC)c(S(=O)(=O)N3CCOCC3)c2)cc1OC	-21.4	0.13 µM [falling, full curve, poor fit]	–
O=C(CSc1cccc[n+]1[O-])Nc1cc2c(cc1Cl)C(=O)c1ccccc1C2=O	–	1.46 µM [rising, partial curve]	–
O=C(O)c1ccc(-n2nnnc2SCc2ccccc2Br)cc1	4.96	–	–
CC(C)C(=O)Nc1cccc(C(=O)Nc2ccc3c(c2)OCO3)c1	28.9	0.0366 µM [rising, full curve, poor fit]	0.058 µM [rising, full curve]
C=CCN(C(=O)CC(NC(C)=O)c1ccccc1)c1nc(-c2ccc(S(C)(=O)=O)cc2)cs1 (stereo unspecified)	-43.7	0.58 µM [rising, single point]	8.2 µM [falling, partial curve, poor fit]
Cc1cc(Sc2ncnc(N)c2[N+](=O)[O-])ncn1	-38.2	29.1 µM [falling, single point]	0.116 µM [falling, full curve, poor fit]
O=C(NCC1CCCO1)C(=O)NCC1CCCN1S(=O)(=O)c1ccccc1 (stereo unspecified)	-2.45	0.164 µM [falling, full curve]	–
Cc1cc(C)c2cc(CN(CCO)C(=O)NC3CCCCC3)c(=O)[nH]c2c1	11.2	3.66 µM [rising, single point]	–
O=C(O)c1ccc(Nc2nc3ccc(Cl)cc3[nH]2)cc1	32.3	–	29.1 µM [rising, single point]
O=C(CCc1nc(-c2ccccc2)no1)NC1CCCCC1	51.9	23.1 µM [rising, partial curve]	16.4 µM [rising, partial curve]
Cc1ccc(C(=O)NCC(=O)OCC(=O)NC2CCS(=O)(=O)C2)cc1C (stereo unspecified)	13.9	–	0.731 µM [falling, single point]
O=C(CN1CC(=O)Oc2ccccc21)OCC(=O)c1cccc(Br)c1	16.5	5.8 µM [rising, partial curve, poor fit]	–
CC(=O)Nc1ccc(S(=O)(=O)NCCC(=O)N2CCN(C(c3ccccc3)c3ccccc3)CC2)cc1	39.9	20.6 µM [rising, single point]	8.2 µM [rising, partial curve, poor fit]

Grouped by structure, the compounds so far with two or more sulfur atoms (4)
Structure (SMILES)	cell number change [%]	AC50 [1]	AC50 [2]
CCC1(C)Cc2c(sc3nc(SCC(=O)O)[nH]c(=O)c23)CO1 (stereo unspecified)	-110	–	29.1 µM [falling, single point]
O=C(Nc1cccnc1)C1CCC(CNS(=O)(=O)c2cccc3nsnc23)CC1 (stereo unspecified)	-7	–	–
Cc1cc(C)c(C#N)c(SCC(=O)Nc2nnc(-c3ccccc3)s2)n1	5.69	3.66 µM [rising, full curve]	–
C=CCN(C(=O)CC(NC(C)=O)c1ccccc1)c1nc(-c2ccc(S(C)(=O)=O)cc2)cs1 (stereo unspecified)	-43.7	0.58 µM [rising, single point]	8.2 µM [falling, partial curve, poor fit]

(list continues)

Structure (SMILES)	cell number change [%]	AC50 [1]	AC50 [2]
C/C(=N\NC(=O)c1ccccc1C)c1ccc(N2CCOCC2)cc1	33.2	–	1.64 µM [rising, partial curve]
Cc1cc([N+](=O)[O-])ccc1NC(=O)C(C)NC1CCCCC1 (stereo unspecified)	-12.6	–	–
O=[N+]([O-])c1ccccc1S(=O)(=O)Nc1ccc(-c2ccc(N3CCCC3)nn2)cc1	–	0.92 µM [rising, partial curve]	–
C=C(C)C1CC=C(C)/C(=N\NC(=O)CNc2ccccc2OC)C1 (stereo unspecified)	14.3	0.259 µM [rising, full curve]	–
COc1ccc2oc(C)c(C(=O)Cn3ccnc3)c2c1	–	0.58 µM [rising, single point]	–
CC1CCCN(C2=C(NS(=O)(=O)c3ccc(Cl)cc3)C(=O)c3ccccc3C2=O)C1 (stereo unspecified)	-82.7	1.64 µM [falling, full curve]	5.8 µM [falling, full curve]
CCCN(C(=O)COc1ccc(C(C)=O)cc1OC)C1CCS(=O)(=O)C1 (stereo unspecified)	0.518	2.59 µM [rising, single point]	–
CCCCc1ccc(NC(=S)NCCN2CCOCC2)cc1	-52.5	–	–
COCCN1C(=O)N[C@@H](c2cccc(F)c2)C(C(=O)OC)=C1C	12.1	2.06 µM [falling, partial curve]	–
CCN(CC(=O)NCc1cccs1)C(=O)c1cc(S(=O)(=O)N2CCCCC2)ccc1Cl	4.73	20.6 µM [rising, single point]	–
CCOC(=O)c1cnc(-n2nc(C)cc2C)nc1NNc1ncc(-c2ccccc2)cn1	-27.5	6.51 µM [falling, full curve]	4.61 µM [falling, full curve, poor fit]
CCC(C)N1CCN(S(=O)(=O)c2ccc(NC(C)=O)cc2)CC1 (stereo unspecified)	–	0.146 µM [rising, single point]	–
O=c1[nH]c(SCc2ccc([N+](=O)[O-])cc2)nc2[nH]ncc12	0.656	–	–
COc1cccc2sc3ccc(NCCC4CCCN4C)cc3c(=O)c12 (stereo unspecified)	-7.49	–	–
O=C(O)C1Nc2c(O)cc(Cl)c([N+](=O)[O-])c2C2C=CCC12 (stereo unspecified)	-0.261	0.58 µM [falling, single point]	–
CCCN(CCC)S(=O)(=O)c1ccc(C(=O)Nc2ccc(S(=O)(=O)Nc3nnc(CC)s3)cc2)cc1	22.5	1.84 µM [falling, partial curve]	–
c1ccc2c(Nc3nncs3)c3ccccc3nc2c1	–	16.4 µM [rising, partial curve, poor fit]	–
Cc1ccc(S(=O)(=O)Nc2ccccc2C(=O)N2CCCC2)cc1	-6.74	–	–
CC(C)c1ccc(NC(=S)N2CCN(C)CC2)cc1	12.7	29.1 µM [falling, single point]	0.116 µM [rising, full curve, poor fit]
